Experimental findings from PubChem BioAssay AID2685 (National Center for Advancing Translational Sciences (NCATS), 2010) are described below.

SMILES strings stand for the structures. The list shows a part of the results. The main result of the screen is listed elsewhere. These columns were measured beside it and carry no call. The list favours compounds with an active or inconclusive main result. The note in brackets gives the kind of curve behind each potency; many fits are weak.

What is called AC50 is the concentration at which the activity in the assay is half-maximal. Low values mean activity at low concentration, high ones activity only at high concentration.

The test is described as follows: qHTS Assay for Lipid Storage Modulators in Drosophila S3 Cells.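 On cell number change: cells counted by Cell Tracker Red CMTPX staining in the red channel.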 To be noted: BODIPY lipid droplet fluorescence, 18-24 h; for cell number change: measured here: cell count max response, cells fed with added oleic acid. The method, boiled down:
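Drosophila S3 cells loaded with oleic acid (400 uM, as added) and compounds at several concentrations; lipid droplets imaged by 488-nm laser-scanning cytometry, 500–530 nm intensity and object ratio to cell channel. Percent activity normalized to 20 uM Triacsin C.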
(In general: Quantitative high-throughput screening tests each substance at several concentrations.)

The mark [1] stands for this setting: measured here: cell number channel AC50, cells fed with added oleic acid.
The mark [2] stands for this setting: measured here: lipid fluorescence (Fed channel) AC50, cells fed with added oleic acid.

For `COc1ccc(N2C(=O)C3NN=C(C(=O)OCc4ccccc4)C3C2=O)cc1` (stereo not drawn), the cell number change turned out to be 26.6%. Moreover, under setting [1], the AC50 is 0.103 µM [rising, full curve, poor fit].
For `Cc1ccc(CN(C)c2nc(-c3cccnc3)nc3ccccc23)o1`, the cell number change was 11.7%.
The same measure, in the same setting: the figure for `CCOc1cc(S(=O)(=O)NCCCN2CCOCC2)c(C)cc1C` is -0.867%.
For `CCOc1ccc(NC(=O)CN(C)C(=O)c2ccccc2SCC(=O)N2CCCC2)cc1OCC`, the cell number change was -9.34%. The AC50 under setting [2] was 0.651 µM [rising, full curve, poor fit].
Consider `O=C(NC(=S)NCCO)c1sc2ccccc2c1Cl`, for which the cell number change is -14.3%. Moreover, the AC50 under setting [2] is 14.1 µM [falling, single point].
`COc1cccc2c1cc1c(=O)n(CC(=O)NCc3ccccn3)nc(C)n12`: the cell number change is -12.1%. Moreover, the half-maximal activity concentration (AC50) under setting [2] was 29.1 µM [rising, partial curve].
On to `COC(=O)CN1C(=O)COc2ccc(Cl)cc21`, for which the cell number change was -2.15%. Moreover, under setting [2], the AC50 is 0.13 µM [rising, full curve, poor fit].
In the case of `CSc1nc2c(c(=O)[nH]1)CCCC2`, the cell number change is -56.2%. In addition, the AC50 under setting [1] was 5.8 µM [falling, full curve].
As for `COc1cccc2sc(N3CCN(C(=O)c4ccco4)CC3)nc12`, the cell number change is -25%.
On to `OCCn1c(-c2ccccc2)csc1=Nc1ccccc1`, for which the cell number change was found to be 18.5%. In addition, the AC50 under setting [2] is 0.116 µM [rising, full curve].
With `COC(=O)c1sc(NC(=O)CC(C)C)c(C(=O)OC)c1C`, the cell number change was 26.5%. For the same molecule, the AC50 under setting [1] is 0.259 µM [rising, full curve, poor fit]. In addition, the AC50 under setting [2] is 25.9 µM [rising, partial curve].
Consider `Cc1ccc(-n2c(O)c(C=Nc3ccc4c(c3)OCO4)c3ccccc3c2=O)cc1C`, for which the cell number change is -0.406%. In addition, the AC50 under setting [2] is 0.082 µM [falling, full curve, poor fit].
For the molecule `Cc1ccc(C(=O)Oc2ccccc2N2C(=O)C3C4CCC(C4)C3C2=O)cc1` (stereo not drawn), the cell number change is -35.7%. The concentration at half-maximal activity (AC50) under setting [1] is 1.84 µM [falling, full curve, poor fit]. Moreover, the AC50 under setting [2] was 1.64 µM [falling, full curve, poor fit].
In the case of `Cc1ccc(-c2nnc(SCc3nc4ccccc4[nH]3)n2Cc2ccco2)cc1`, the cell number change was -33.3%. For the same molecule, the AC50 under setting [1] was 29.1 µM [falling, single point].
In the case of `Cc1ccccc1CN1CCCC(C(=O)Nc2ccc(-c3ccn[nH]3)cc2)C1` (stereo not drawn), the cell number change worked out at 30.5%. Moreover, the AC50 under setting [2] is 16.4 µM [rising, partial curve].
Take `Cc1ccc(C(=O)COC(=O)c2ccccc2NC(=O)c2ccccc2)cc1[N+](=O)[O-]`: the cell number change came out at 3.07%. The half-maximal activity concentration (AC50) under setting [1] is 6.51 µM [falling, single point].
For the molecule `CC1=NN(C(N)=S)C(=O)C1N=Nc1ccc(Cl)cc1Cl` (stereo not drawn), the cell number change is -35.7%. Besides, the AC50 under setting [1] is 8.2 µM [falling, partial curve].
`COc1cc2c(cc1OC)CN(C(=S)Nc1c(C)cccc1C)CC2`: the cell number change is -17.1%. Further, the AC50 under setting [2] was 0.461 µM [falling, full curve, poor fit].
As to `O=C(Nc1ccc2c(c1)OCCO2)c1ccc(S(=O)(=O)N2CCCCC2)cc1`, the cell number change is -4%.
`Cc1ccc(C2=N/C(=C/c3cccs3)C(=O)N2Nc2ccccc2)cc1`: the AC50 was 4.11 µM [rising, partial curve, poor fit] under setting [1] and 6.51 µM [rising, partial curve] under setting [2].
`O=C(Nc1ccc(CN2CCOCC2)cc1)c1ccc(F)cc1`: the cell number change is -8.52%. In addition, under setting [2], the AC50 is 29.1 µM [falling, single point].
Take `O=C(COc1ccccc1)NN1C(=O)CSC1=S`: the cell number change is -43.4%. For the same molecule, the AC50 under setting [2] is 29.1 µM [falling, single point].
Consider `O=C(Cn1cnc2c(nnn2Cc2ccc(F)cc2)c1=O)Nc1ccccc1`, for which the cell number change was 18.8%. Besides, the AC50 under setting [1] is 0.58 µM [rising, partial curve, poor fit]. Also, the concentration at half-maximal activity (AC50) under setting [2] was 29.1 µM [falling, single point].
Consider `O=C(N/N=C/c1ccc([N+](=O)[O-])o1)c1ccc2c(c1)OCO2`, for which, under setting [1], the AC50 was 6.51 µM [falling, partial curve, poor fit].
With `Nc1nnc(SCC(=O)Nc2ccc(F)c(Cl)c2)n1-c1ccccc1`, the cell number change is 5.21%. Also, the concentration at half-maximal activity (AC50) under setting [2] is 1.46 µM [rising, full curve].
On to `COc1cc2c(cc1OC)C(COc1cccc(C(F)(F)F)c1)NCC2` (stereo not drawn), for which the cell number change stood at 8.4%. Besides, under setting [2], the AC50 is 6.51 µM [rising, single point].
Turning to `CCOC(=O)c1[nH]c2ccc(C)cc2c1NC(=O)CN1CCCCC1`, the cell number change came out at 68.1%. For the same molecule, the AC50 under setting [1] is 18.4 µM [rising, partial curve]. The AC50 under setting [2] was 2.31 µM [rising, partial curve].
For the molecule `Cn1c(NCc2cc(Br)ccc2O)nc2ccccc21`, the cell number change is -32.4%. Under setting [1], the half-maximal activity concentration (AC50) is 29.1 µM [falling, single point].
`Cc1nc(N2CCCCC2)c2c(C)c(C(=O)Nc3ccccc3C(F)(F)F)sc2n1`: the cell number change is -16.5%. Besides, under setting [2], the AC50 was 29.1 µM [falling, single point].
On to `CN1CCSc2ccc(C(=O)Nc3cccc(F)c3)cc21`, for which the cell number change is -2.45%.
As for `O=C1OCCC1Sc1nnc(-c2ccccc2)o1` (stereo not drawn), the cell number change is -9.66%. In addition, the AC50 under setting [2] was 3.26 µM [falling, full curve, poor fit].
Take `CCCC(C)NC(=O)COC(=O)c1ccc(Cl)c(S(N)(=O)=O)c1` (stereo not drawn): the cell number change is -16.6%.
`Cc1c(CCO)c(=O)[nH]n1S(=O)(=O)c1cccc(C(F)(F)F)c1`: the cell number change was -32.4%. For the same molecule, the AC50 under setting [1] is 3.55 µM [falling, full curve]. Moreover, under setting [2], the AC50 is 2.24 µM [falling, full curve].
Consider `O=C(CN(C(=O)CNS(=O)(=O)c1ccccc1)c1ccc(Cl)cc1)NCC1CCCO1` (stereo not drawn), for which the cell number change is -19.2%. The AC50 under setting [2] is 0.0058 µM [rising, full curve, poor fit].
For `Cc1nc2ccc(S(=O)(=O)NCC(=O)N3CCN(c4ccccc4)CC3)cc2s1`, the cell number change is -10.6%.
Take `COCCOC1CCN(C(=O)C2CCC(=O)N(CCc3ccccc3)C2)CC1` (stereo not drawn): the cell number change was -9.83%. The AC50 under setting [2] is 6.51 µM [falling, single point].
For `COc1ccc(C2=NN(C(=O)CN3CCCCC3)C(c3ccc(C)cc3)C2)cc1` (stereo not drawn), under setting [2], the half-maximal activity concentration (AC50) is 6.51 µM [rising, single point].
`Cc1cccc(C(=O)NCC(=O)NC(C)c2ccc(-n3ccnc3)cc2)c1` (stereo not drawn): the concentration at half-maximal activity (AC50) reads like this: under setting [1], 0.82 µM [rising, partial curve]; under setting [2], 0.326 µM [rising, partial curve, poor fit].
In the case of `CCN1CCc2c(sc(NC(=O)c3ccc(S(=O)(=O)N4CCOCC4)cc3)c2C(N)=O)C1`, the AC50 under setting [1] was 6.51 µM [falling, single point].
For the molecule `CCc1ccc(C2N(c3ccc(OC)cc3)C(=O)C3CCCN32)cc1` (stereo not drawn), the cell number change is 38.3%. Further, under setting [1], the AC50 is 6.51 µM [rising, single point].
For `CC(C(=O)Nc1ccc(Cl)cc1Cl)N1C(=O)NC2(CCCCCCC2)C1=O` (stereo not drawn), the cell number change is -31.8%. In addition, the AC50 under setting [1] is 0.058 µM [falling, full curve, poor fit]. Moreover, the AC50 under setting [2] was 25.9 µM [falling, single point].
Take `Cc1cc([N+](=O)[O-])c(C(C)(C)C)cc1N`: the cell number change amounted to 33.4%. Moreover, the AC50 under setting [1] was 20.6 µM [rising, single point].
`O=C(CCSc1nc(-c2ccco2)cc(C(F)(F)F)n1)N1CCN(c2ccccn2)CC1`: the cell number change was -13.2%. Moreover, under setting [2], the AC50 was 0.92 µM [rising, partial curve, poor fit].
With `Cc1cccc(-n2nc3c(c2NC(=O)C(C)C)CSC3)c1`, the cell number change was 31.5%. Besides, under setting [1], the AC50 is 0.116 µM [rising, full curve, poor fit]. Besides, under setting [2], the AC50 was 29.1 µM [rising, single point].
As to `CCOc1cc(/C=N/NC(=O)c2cccnc2)cc(Br)c1OCC(N)=O`, the cell number change is -55.4%.
Consider `CC(C)c1ccc(NC2CCCN(C(=O)C3=NN(C)C(=O)CC3)C2)cc1` (stereo not drawn), for which the cell number change turned out to be 1.18%. For the same molecule, the concentration at half-maximal activity (AC50) under setting [2] was 0.517 µM [falling, full curve, poor fit].
`COc1ccc(-n2nc(C(=O)N3CCCCC3)c(C)c(C#N)c2=O)cc1`: the cell number change was determined as 15%.
For the molecule `Cc1cc2ncn(C(=O)c3c(-c4ccccc4Cl)noc3C)c2cc1C`, the cell number change was -34.1%. For the same molecule, the AC50 under setting [1] was 29.1 µM [falling, single point].
For `c1ccc(-n2nnnc2NCCc2c[nH]c3ccccc23)cc1`, the cell number change is -11.4%.
`COc1ccc(Nc2nc(OC)nc(N3CCN(c4ccc(OC)cc4)CC3)n2)cc1`: the AC50 under setting [1] is 1.3 µM [rising, partial curve] and the AC50 under setting [2] was 1.64 µM [rising, partial curve].
Consider `CCCn1c(=O)c(C(=O)NNS(=O)(=O)c2ccc(NC(=O)OC)cc2)c(O)c2ccccc21`, for which the cell number change stood at 23%. Also, under setting [2], the AC50 is 29.1 µM [rising, single point].
On to `CCOc1ccc(NC(=O)c2nnn(CC(=O)Nc3ccccc3OC)c2N)cc1`, for which the cell number change was -23%.
For the molecule `c1ccc(SCc2nc(-c3ccncc3)n[nH]2)nc1`, the cell number change was -30.8%. Further, the half-maximal activity concentration (AC50) under setting [1] was 29.1 µM [falling, single point]. For the same molecule, under setting [2], the AC50 is 29.1 µM [falling, single point].
For the molecule `CC1CCN(C(=O)COC(=O)c2cccc(S(=O)(=O)N(C)c3ccccc3)c2)CC1`, the cell number change came out at 0.352%. Under setting [2], the half-maximal activity concentration (AC50) was 0.0058 µM [rising, full curve, poor fit].
Take `CN(C(=O)c1ccc(NC(=O)Cc2ccc(NC(=O)C3CCCN(C(=O)CCc4ccccc4)C3)cc2)cc1)C1CC1` (stereo not drawn): the cell number change is -43.7%. Also, the AC50 under setting [1] was 18.4 µM [falling, partial curve, poor fit]. The AC50 under setting [2] was 6.51 µM [falling, single point].
Consider `CCN(CC)C(=O)C(Cc1ccccc1)N1C(=O)c2ccccc2C1=O` (stereo not drawn), for which the half-maximal activity concentration (AC50) under setting [2] was 6.51 µM [falling, single point].
Consider `Cc1cccc(OCC(=O)Nc2ccc(C(=O)Nc3ccccc3C(=O)O)cc2)c1C`, for which the cell number change was -6.03%. The AC50 under setting [2] was 2.31 µM [rising, single point].
As for `CCN(CC)S(=O)(=O)C1CCS(=O)(=O)C1` (stereo not drawn), the cell number change was -2.87%. Also, the AC50 under setting [2] is 25.9 µM [falling, partial curve].
For the molecule `CCOc1ccc2nc(NC(=O)CC3Oc4ccccc4NC3=O)sc2c1` (stereo not drawn), the cell number change amounted to 11.7%. Also, the AC50 under setting [2] was 0.206 µM [rising, full curve].
Turning to `CC1=C(C(=O)Nc2ccccc2)C(c2sccc2C)n2nnnc2N1` (stereo not drawn), the AC50 under setting [1] is 6.51 µM [rising, partial curve, poor fit].
